Part of at least one peptide drawing is inferred or uncertain, most often the ends.
System: platelets
Assay: Dog antiplatelet IC50
Format: cell-based

Compound: CC[C@H](C)[C@H](NC(=O)[C@@H]1CCCN1C(=O)[C@H](CCC(=O)O)NC(=O)[C@H](Cc1c[nH]c2ccccc12)NC(=O)[C@H](CC(=O)O)NC(=O)CNC(=O)[C@@H](N)CCCNC(=N)N)C(=O)N1CCC[C@H]1C(=O)N[C@@H](CCC(=O)O)C(=O)N[C@@H](CCC(=O)O)C(=O)N[C@@H](C)C(=O)N[C@@H](CC1CCCCC1)C(=O)N[C@H](CCC(=O)O)C(=O)O [Example 3]
- IC50: 7 µM
